Experimental data: PubChem BioAssay AID493014 (National Center for Advancing Translational Sciences (NCATS), 2011)
Among all 340,000 compounds or so, about 170 (0.05%) were called active. The shares of active, inactive and inconclusive entries below differ from those in the screen. Calls come from the whole dose curve; as a rule, active = well fitted inhibition curve with a large enough effect in the signal ratio, with a control signal flat (not every such curve was filed as active); inconclusive = small, poorly fitted or top-dose-only effect, or effect the other way, or a change in a side signal; inactive = flat fitted curve, though single readings scatter; the % refers to the signal ratio. Potencies of inconclusive entries are doubtful fits and often do not repeat.

assay: qHTS Assay to Find Inhibitors of Chronic Active B-Cell Receptor Signaling; conditions: ABC-DLBCL IkBa-CBG/CBR reporter, luminescence ratio (green luciferase fused to IkBa over red control in TMD8 lymphoma cells), 4 h; activity change, negative = inhibition: at 46.1 µM (top of the series) unless noted;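 for activity change, negative = inhibition: plate controls were basal doxycycline-induced cells for no effect and cells given 10 µM MG132 for full effect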
Summary of the method: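 Compounds up to 46 uM were incubated four hours with TMD8 cells whose green CBG68 luciferase is fused to IkappaBalpha; red CBR luminescence normalised the signal, and concentration-effect curves were fitted to fusion, red and ratio data.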
Potency is the fitted concentration of half-maximal effect.

Row | SMILES | activity change, negative = inhibition | Potency
1 | Cc1ccc(-n2ncc3c(Nc4cccc(Cl)c4)ncnc32)c(C)c1 | inconclusive: 18.1% | –
2 | COc1cc(OC)c(NC(=O)CCCNC(=O)Cn2cnc3sc(C)c(C)c3c2=O)cc1Cl | inconclusive: 17.3% | –
3 | Cc1cc(C)nc(NC(=O)/C=C/c2ccc3c(c2)OCO3)c1 | – | inconclusive: 29.1 µM [falling, single point]
4 | Fc1ccc(-c2csc(NC3=NCCC3)n2)cc1 | inconclusive: -4.54% | –
5 | CC(C)(Cc1ccc(O)cc1)NC(=O)CC(=O)N/N=C/c1ccc([N+](=O)[O-])cc1 | inactive: 1.1% | –
6 | CCCCN(C)S(=O)(=O)c1ccc(C(=O)Nc2nnc(-c3cccs3)o2)cc1 | – | inconclusive: 35.5 µM [falling, single point]
7 | COc1cc(C(=O)NC2=NCCS2)cc(OC)c1OC | inactive: 1.63% | –
8 | Cc1ccc(C(=O)Nc2nc(-c3ccccn3)cs2)cc1S(=O)(=O)N1CCOCC1 | inconclusive: 0.236% | –
9 | COc1cccc(-c2nn(-c3ccccc3)cc2C(=O)Nc2nccs2)c1 | – | inconclusive: 0.651 µM [rising, full curve, poor fit]
10 | O=C(/C=C/c1cccc(F)c1)Nc1ccc(S(=O)(=O)N2CCOCC2)cc1 | inactive: 2.61% | –
11 | Nc1ccc(S(=O)(=O)NC2(C(F)(F)F)NC(=O)N(Cc3ccccc3)C2=O)cc1 (configuration not stated) | inactive: 3.27% | –
12 | OC(CNc1nc(-c2cccnc2)nc2ccccc12)c1ccccc1 (configuration not stated) | inactive: 4.48% | –
13 | Cc1ccccc1OCC(=O)NCC(=O)N/N=C/c1ccc(Br)o1 | inactive: 4.22% | –
14 | CC(=O)Nc1ccc(N2CCN(C(=O)c3cccs3)CC2)cc1 | inactive: 0.234% | –
15 | Cc1ccc(S(=O)(=O)CCC(=O)Nc2nnc(-c3ccccc3S(C)(=O)=O)o2)cc1 | inconclusive: 0.0681% | –
16 | O=C1C2C3C=CC(C3)C2C(=O)N1CCCCCCN1C(=O)C2C3C=CC(C3)C2C1=O (configuration not stated) | – | inconclusive: 35.5 µM [falling, single point]
17 | CCOc1cccc(N2C(=O)CC(N(CCc3ccc(OC)c(OC)c3)C(=O)CC)C2=O)c1 (configuration not stated) | inconclusive: -10.5% | –
18 | CC1(C)C(=O)OC(C(=O)c2ccc(C(C)(C)C)cc2)C(C)(C)C1=O (configuration not stated) | inconclusive: 16.4% | –
19 | O=C(Nc1ccccc1N1CCCCC1)C1CCN(C(=O)c2ccc(Cl)cc2)CC1 | inconclusive: 11.5% | –
20 | CCN(CC)C(=O)c1sc(NC(=O)Cc2cccs2)c(C#N)c1C | inconclusive: 1.18% | –
21 | O=C(O)CCCC(=O)N1N=C(c2c(-c3ccccc3)c3cc(Cl)ccc3[nH]c2=O)CC1c1cccs1 (configuration not stated) | inconclusive: 11.7% | –
22 | O=S(=O)(c1ccc(F)cc1)N1CCN(Cc2cc3c(cc2Br)OCCO3)CC1 | inactive: 7.3% | –
23 | CCN(CC)S(=O)(=O)c1cccc(NC(=O)c2cc3ccccc3o2)c1 | inconclusive: 5.98% | –
24 | COc1ccc(NC(=O)CC2C(=O)N(c3ccc(F)cc3)C(=S)N2NC(=O)c2ccccc2)cc1 (configuration not stated) | – | inconclusive: 18.4 µM [falling, single point]
25 | Cn1cc(C(=O)N/N=C/c2cccs2)c2ccccc21 | – | inconclusive: 4.11 µM [falling, single point]
26 | Cc1ccc(C)c(-c2nnc(OCC(=O)Nc3cc(C)on3)c3ccccc23)c1 | inconclusive: -19.4% | –

Row | SMILES | activity change, negative = inhibition | Potency
27 | O=C(CNC(=O)/C=C/c1ccco1)N=Nc1c(O)[nH]c2ccccc12 | inactive: 0.833% | –
28 | CNC(=O)CCc1nc(-c2ccc(C(C)(C)C)cc2)no1 | inactive: -12.5% | –
29 | CC(C)(C)C(=O)OC/C(N)=N/OC(=O)c1ccccc1 | inconclusive: 13.4% | –
30 | O=Cc1ccc2c(c1)CCN2Cc1ccccc1 | inconclusive: -11.6% | –
31 | C[C@@]12C(=O)Nc3ccc(F)cc3C(=O)N1[C@H]1c3ccccc3OC[C@@H]1[C@@H]2c1ccccc1 | inconclusive: 6.97% | –
32 | CCOC(=O)CSc1nnc(-c2ccc(NS(=O)(=O)c3ccc(C)cc3)cc2)o1 | inconclusive: -27.8% | –
33 | CC1CCCN(S(=O)(=O)CCNC(=O)c2ccccc2)C1 (configuration not stated) | inconclusive: 14.1% | –
34 | COc1ccc(CN(C)C(=O)CCl)cc1 | – | inconclusive: 20 µM [falling, single point]
35 | O=C(NCc1cccs1)c1cc(-c2ccc(O)cc2)on1 | – | inconclusive: 17.8 µM [falling, partial curve]
36 | Cc1ccc(C(=O)N2CC3(C(C)C)CN(C(=O)c4ccc(C)cc4)CC(C(C)C)(C2)C3=O)cc1 | inactive: 10.7% | –
37 | CCn1nnnc1NCc1ccc(OCc2c(F)cccc2Cl)c(OC)c1 | – | inconclusive: 35.5 µM [falling, single point]
38 | CCCn1c(Nc2ccc(Cl)cc2)nc2ccccc21 | inconclusive: 4.53% | –
39 | c1ccc(-c2ccc(C3=Nn4c(Cn5nnc6ccccc65)nnc4SC3)cc2)cc1 | inconclusive: -8.42% | –
40 | Cc1nc(SCC(=O)NNC(=O)c2ccc(F)cc2)c2ccccc2n1 | – | inconclusive: 5.8 µM [falling, single point]
41 | COc1ccc(OC)c(NC(=O)Cn2c(=O)oc3ccccc32)c1 | inconclusive: -1.89% | –
42 | O=C1CCN(Cc2ccccc2)C=C1c1ccc(Br)cc1 | inactive: 1.17% | –
43 | Cc1nnsc1C(=O)NC1CCCc2c1cnn2-c1cc(F)cc(F)c1 (configuration not stated) | inactive: 5.38% | –
44 | CCC(=O)c1ccc(/C=C/c2nc3ccccc3n2C)o1 | – | inconclusive: 35.5 µM [falling, single point]
45 | C=CC[C@H](CC(=O)N(CCO)Cc1ccccc1)C(=O)NC[C@H](OC(=O)[C@@H](CC=C)Cc1ccc(F)cc1)c1ccccc1 | inconclusive: -1.25% | –
46 | Cc1nn(C)c(Oc2ccccc2)c1[N+](=O)[O-] | inconclusive: 0.721% | –
47 | COc1cc(CNCCN2CCOCC2)ccc1OCc1ccc(Cl)cc1Cl | inconclusive: 19.9% | –
48 | Cc1cccc(Nc2nnc(SCC(=O)Nc3ccccc3[N+](=O)[O-])s2)c1C | inactive: -4.61% | –
49 | CC1CC(C)CN(CC(=O)N2CCOCC2)C1 (configuration not stated) | inconclusive: 8.1% | –
50 | O=C(Nc1cccc(-c2nc3ccccc3[nH]2)c1)c1ccc(C(=O)Nc2cccc(-c3nc4ccccc4[nH]3)c2)cc1 | inconclusive: 4.91% | –
51 | O=C(CCNc1ccc(Br)cc1)c1cccc([N+](=O)[O-])c1 | inconclusive: 1.08% | –
52 | C=CCOc1ccc2ccccc2c1CNn1c(C)n[nH]c1=S | – | inconclusive: 11.2 µM [falling, partial curve]
